From publication PMC6405930, “Conservation of the Amyloid Interactome Across Diverse Fibrillar Structures” (Scientific Reports, 2019)

assay: In-solution digest of plasma, quantitative MS/MS (relative protein composition); parameters: species or system human; details: original plasma, no fibrils

Row | Molecule | Relative composition of plasma proteins: Plasma
1 | Ig μ chain C region: plasma protein bound to fibrils (protein, UniProt P01871 1-474, looked up) Immunoglobulin heavy constant …: GSASAPTLFPLVSCENSPSDTSSVAVGCLAQDFLPDSITFSWKYKNNSDISSTRGFPSVLRGGKYAATSQVLLPSKDVMQGTDEHVVCKVQHPNGNKEKNVPLPVIAELPPKVSVFVPPRDGFFGNPRKSKLICQATGFSPRQIQVSWLREGKQVGSGVTTDQVQAEAKESGPTTYKVTSTLTIKESDWLGQSMFTCRVDHRGLTFQQNASSMCVPDQDTAIRVFAIPPSFASIFLTKSTKLTCLVTDLTTYDSVTISWTRQNGEAVKTHTNISESHPNATFSAVGEASICEDDWNSGERFTCTVTHTDLPSPLKQTISRPKGVALHRPDVYLLPPAREQLNLRESATITCLVTGFSPADVFVQWMQRGQPLSPEKYVTSAPMPEPQAPGRYFAHSILTVSEEEWNTGETYTCVVAHEALPNRVTERTVDKSTEGEVSADEEGFENLWATASTFIVLFLLSLFYSTTVTLFKVK | 0.3 ± 0.0 % of total protein

assay: In-solution digest of CSF, quantitative MS/MS (relative protein composition); parameters: species or system human; key to Identification status: CSF: *: Identified, but not quantified; —: Not identified in any of the samples; details: original CSF, no fibrils

Row | Molecule | Relative composition of CSF proteins: CSF
2 | Cystatin-C: CSF protein bound to fibrils (protein, UniProt P01034 27-146, looked up) Cystatin-C: SSPGKPPRLVGGPMDASVEEEGVRRALDFAVGEYNKASNDMYHSRALQVVRARKQIVAGVNYFLDVELGRTTCTKTQPNLDNCPFHDQPHLKRKAFCSFQIYAVPWQGTMTLSKSTCQDA | 4.6 ± 0.3 % of total protein
3 | Vitamin D-binding protein: CSF protein bound to fibrils (protein, UniProt P02774 17-474, looked up) Vitamin D-binding protein: LERGRDYEKNKVCKEFSHLGKEDFTSLSLVLYSRKFPSGTFEQVSQLVKEVVSLTEACCAEGADPDCYDTRTSALSAKSCESNSPFPVHPGTAECCTKEGLERKLCMAALKHQPQEFPTYVEPTNDEICEAFRKDPKEYANQFMWEYSTNYGQAPLSLLVSYTKSYLSMVGSCCTSASPTVCFLKERLQLKHLSLLTTLSNRVCSQYAAYGEKKSRLSNLIKLAQKVPTADLEDVLPLAEDITNILSKCCESASEDCMAKELPEHTVKLCDNLSTKNSKFEDCCQEKTAMDVFVCTYFMPAAQLPELPDVELPTNKDVCDPGNTKVMDKYTFELSRRTHLPEVFLSKVLEPTLKSLGECCDVEDSTTCFNAKGPLLKKELSSFIDKGQELCADYSENTFTEYKKKLAERLKAKLPDATPTELAKLVNKHSDFASNCCSINSPPLYCDSEIDAELKNIL | 0.0 ± 0.0 % of total protein
4 | α2-HS-glycoprotein: CSF protein bound to fibrils (protein, UniProt P02765 19-300; P02765 341-367, looked up) Alpha-2-HS-glycoprotein chain … 1: APHGPGLIYRQPNCDDPETEEAALVAIDYINQNLPWGYKHTLNQIDEVKVWPQQPSGELFEIEIDTLETTCHVLDPTPVARCSVRQLKEHAVEGDCDFQLLKLDGKFSVVYAKCDSSPDSAEDVRKVCQDCPLLAPLNDTRVVHAAKAALAAFNAQNNGSNFQLEEISRAQLVPLPPSTYVEFTVSGTDCVAKEATEAAKCNLLAEKQYGFCKATLSEKLGGAEVAVTCMVFQTQPVSSQPQPEGANEAVPTPVVDPDAPPSPPLGAPGLPPAGSPPDSHVL Alpha-2-HS-glycoprotein chain … 2: TVVQPSVGAAAGPVVPPCPGRIRHFKV | 0.2 ± 0.0 % of total protein

same assay, conditions: original CSF, symbol cells

Row | Molecule | Identification status: CSF
5 | Calsyntenin-1: CSF protein bound to fibrils (protein, UniProt O94985 29-981, looked up) Calsyntenin-1: ARVNKHKPWLEPTYHGIVTENDNTVLLDPPLIALDKDAPLRFAESFEVTVTKEGEICGFKIHGQNVPFDAVVVDKSTGEGVIRSKEKLDCELQKDYSFTIQAYDCGKGPDGTNVKKSHKATVHIQVNDVNEYAPVFKEKSYKATVIEGKQYDSILRVEAVDADCSPQFSQICSYEIITPDVPFTVDKDGYIKNTEKLNYGKEHQYKLTVTAYDCGKKRATEDVLVKISIKPTCTPGWQGWNNRIEYEPGTGALAVFPNIHLETCDEPVASVQATVELETSHIGKGCDRDTYSEKSLHRLCGAAAGTAELLPSPSGSLNWTMGLPTDNGHDSDQVFEFNGTQAVRIPDGVVSVSPKEPFTISVWMRHGPFGRKKETILCSSDKTDMNRHHYSLYVHGCRLIFLFRQDPSEEKKYRPAEFHWKLNQVCDEEWHHYVLNVEFPSVTLYVDGTSHEPFSVTEDYPLHPSKIETQLVVGACWQEFSGVENDNETEPVTVASAGGDLHMTQFFRGNLAGLTLRSGKLADKKVIDCLYTCKEGLDLQVLEDSGRGVQIQAHPSQLVLTLEGEDLGELDKAMQHISYLNSRQFPTPGIRRLKITSTIKCFNEATCISVPPVDGYVMVLQPEEPKISLSGVHHFARAASEFESSEGVFLFPELRIISTITREVEPEGDGAEDPTVQESLVSEEIVHDLDTCEVTVEGEELNHEQESLEVDMARLQQKGIEVSSSELGMTFTGVDTMASYEEVLHLLRYRNWHARSLLDRKFKLICSELNGRYISNEFKVEVNVIHTANPMEHANHMAAQPQFVHPEHRSFVDLSGHNLANPHPFAVVPSTATVVIVVCVSFLVFMIILGVFRIRAAHRRTMRDQDTGKENEMDWDDSALTITVNPMETYEDQHSSEEEEEEEEEEESEDGEEEDDITSAESESSEEEEGEQGDPQNATRQQQLEWDDSTLSY | *
6 | SPARC-like protein 1: CSF protein bound to fibrils (protein, UniProt Q14515 17-664, looked up) SPARC-like protein 1: IPTNARLLSDHSKPTAETVAPDNTAIPSLRAEAEENEKETAVSTEDDSHHKAEKSSVLKSKEESHEQSAEQGKSSSQELGLKDQEDSDGHLSVNLEYAPTEGTLDIKEDMSEPQEKKLSENTDFLAPGVSSFTDSNQQESITKREENQEQPRNYSHHQLNRSSKHSQGLRDQGNQEQDPNISNGEEEEEKEPGEVGTHNDNQERKTELPREHANSKQEEDNTQSDDILEESDQPTQVSKMQEDEFDQGNQEQEDNSNAEMEEENASNVNKHIQETEWQSQEGKTGLEAISNHKETEEKTVSEALLMEPTDDGNTTPRNHGVDDDGDDDGDDGGTDGPRHSASDDYFIPSQAFLEAERAQSIAYHLKIEEQREKVHENENIGTTEPGEHQEAKKAENSSNEEETSSEGNMRVHAVDSCMSFQCKRGHICKADQQGKPHCVCQDPVTCPPTKPLDQVCGTDNQTYASSCHLFATKCRLEGTKKGHQLQLDYFGACKSIPTCTDFEVIQFPLRMRDWLKNILMQLYEANSEHAGYLNEKQRNKVKKIYLDEKRLLAGDHPIDLLLRDFKKNYHMYVYPVHWQFSELDQHPMDRVLTHSELAPLRASLVPMEHCITRFFEECDPNKDKHITLKEWGHCFGIKEEDIDENLLF | *
7 | EGF-containing fibulin-like extracellular matrix protein 1: CSF protein bound to fibrils (protein, UniProt Q12805 18-493, looked up) EGF-containing fibulin-like …: QDTEETITYTQCTDGYEWDPVRQQCKDIDECDIVPDACKGGMKCVNHYGGYLCLPKTAQIIVNNEQPQQETQPAEGTSGATTGVVAASSMATSGVLPGGGFVASAAAVAGPEMQTGRNNFVIRRNPADPQRIPSNPSHRIQCAAGYEQSEHNVCQDIDECTAGTHNCRADQVCINLRGSFACQCPPGYQKRGEQCVDIDECTIPPYCHQRCVNTPGSFYCQCSPGFQLAANNYTCVDINECDASNQCAQQCYNILGSFICQCNQGYELSSDRLNCEDIDECRTSSYLCQYQCVNEPGKFSCMCPQGYQVVRSRTCQDINECETTNECREDEMCWNYHGGFRCYPRNPCQDPYILTPENRCVCPVSNAMCRELPQSIVYKYMSIRSDRSVPSDIFQIQATTIYANTINTFRIKSGNENGEFYLRQTSPVSAMLVLVKSLSGPREHIVDLEMLTVSSIGTFRTSSVLRLTIIVGPFSF | *
8 | Amyloid-like protein 1: CSF protein bound to fibrils (protein, UniProt P51693 39-650, looked up) Amyloid beta precursor like …: SLAGGSPGAAEAPGSAQVAGLCGRLTLHRDLRTGRWEPDPQRSRRCLRDPQRVLEYCRQMYPELQIARVEQATQAIPMERWCGGSRSGSCAHPHHQVVPFRCLPGEFVSEALLVPEGCRFLHQERMDQCESSTRRHQEAQEACSSQGLILHGSGMLLPCGSDRFRGVEYVCCPPPGTPDPSGTAVGDPSTRSWPPGSRVEGAEDEEEEESFPQPVDDYFVEPPQAEEEEETVPPPSSHTLAVVGKVTPTPRPTDGVDIYFGMPGEISEHEGFLRAKMDLEERRMRQINEVMREWAMADNQSKNLPKADRQALNEHFQSILQTLEEQVSGERQRLVETHATRVIALINDQRRAALEGFLAALQADPPQAERVLLALRRYLRAEQKEQRHTLRHYQHVAAVDPEKAQQMRFQVHTHLQVIEERVNQSLGLLDQNPHLAQELRPQIQELLHSEHLGPSELEAPAPGGSSEDKGGLQPPDSKDDTPMTLPKGSTEQDAASPEKEKMNPLEQYERKVNASVPRGFPFHSSEIQRDELAPAGTGVSREAVSGLLIMGAGGGSLIVLSMLLLRRKKPYGAISHGVVEVDPMLTLEEQQLRELQRHGYENPTYRFLEERP | *
9 | Mimecan: CSF protein bound to fibrils (protein, UniProt P20774 21-298, looked up) Mimecan: PPTQQDSRIIYDYGTDNFEESIFSQDYEDKYLDGKNIKEKETVIIPNEKSLQLQKDEAITPLPPKKENDEMPTCLLCVCLSGSVYCEEVDIDAVPPLPKESAYLYARFNKIKKLTAKDFADIPNLRRLDFTGNLIEDIEDGTFSKLSLLEELSLAENQLLKLPVLPPKLTLFNAKYNKIKSRGIKANAFKKLNNLTFLYLDHNALESVPLNLPESLRVIHLQFNNIASITDDTFCKANDTSYIRDRIEEIRLEGNPIVLGKHPNSFICLKRLPIGSYF | *
10 | Fibulin-1: CSF protein bound to fibrils (protein, UniProt P23142 30-703, looked up) Fibulin-1: DVLLEACCADGHRMATHQKDCSLPYATESKECRMVQEQCCHSQLEELHCATGISLANEQDRCATPHGDNASLEATFVKRCCHCCLLGRAAQAQGQSCEYSLMVGYQCGQVFQACCVKSQETGDLDVGGLQETDKIIEVEEEQEDPYLNDRCRGGGPCKQQCRDTGDEVVCSCFVGYQLLSDGVSCEDVNECITGSHSCRLGESCINTVGSFRCQRDSSCGTGYELTEDNSCKDIDECESGIHNCLPDFICQNTLGSFRCRPKLQCKSGFIQDALGNCIDINECLSISAPCPIGHTCINTEGSYTCQKNVPNCGRGYHLNEEGTRCVDVDECAPPAEPCGKGHRCVNSPGSFRCECKTGYYFDGISRMCVDVNECQRYPGRLCGHKCENTLGSYLCSCSVGFRLSVDGRSCEDINECSSSPCSQECANVYGSYQCYCRRGYQLSDVDGVTCEDIDECALPTGGHICSYRCINIPGSFQCSCPSSGYRLAPNGRNCQDIDECVTGIHNCSINETCFNIQGGFRCLAFECPENYRRSAATLQQEKTDTVRCIKSCRPNDVTCVFDPVHTISHTVISLPTFREFTRPEEIIFLRAITPPHPASQANIIFDITEGNLRDSFDIIKRYMDGMTVGVVRQVRPIVGPFHAVLKLEMNYVVGGVVSHRNVVNVHIFVSEYWF | *
